The whole screen tested about 360,000 compounds, of which about 7,500 (2.1%) were called active. The inconclusive results got no clear call from the source; some entries with a clear call stand among them for comparison. Calls follow the shape of the dose curve; as a rule, active = well fitted inhibition curve with a large enough effect; inconclusive = small, poorly fitted or top-dose-only effect, or effect the other way; inactive = flat fitted curve, though single readings scatter. Potencies of inconclusive entries are doubtful fits and often do not repeat.
Assay: Nrf2 qHTS screen for inhibitors; also: nearly all actives have a fitted effect of over 60% in size
Details: A549 ARE-Fluc reporter, luciferase luminescence, 18-24 h; activity change, negative = inhibition: at 46 µM (top of the series)
Procedure, shortened: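 Cells were seeded and rested 2 h, then exposed to compounds for 18-24 h. CellTiter-Fluor was read first as a viability measure. BugLite was added 15 min before the final luminescent read of ARE-luciferase activity in A549 cells.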
% is scaled to controls: 0 for no effect and ±100 for the full control effect; potency is read from the fitted curve at half-maximal effect.

SMILES	Potency	activity change, negative = inhibition
Cc1nn(-c2ncc(C(F)(F)F)cc2Cl)c(=O)n1-c1c(F)cccc1F	inconclusive: 32.6 µM [activator, partial curve, poor fit]	
Cc1cc(C(=O)COC(=O)c2ccc[nH]c2=O)c(C)n1-c1ccccc1	inconclusive: 14.6 µM [falling, single point]	
CC(C)(C)OC(=O)CNC(=O)c1[nH]cnc1C(=O)NCCCCCNC(=O)OC(C)(C)C	active: 25.9 µM	
O=C(NC(=S)NCc1ccccc1)c1ccccc1[N+](=O)[O-]	inconclusive: 29.1 µM [activator, single point]	
COc1ccc(-c2nc3cccc(C)n3c2NCc2ccco2)cc1OC		inactive: 13.6%
Cc1ccc(Nc2nc(N)nc(CSC(=S)N3CCOCC3)n2)c(C)c1	inconclusive: 1.3 µM [activator, partial curve]	
CCCCc1ccc(NC(=O)CSC2=C(C#N)C(c3ccco3)C3=C(CCCC3=O)N2)cc1 (stereo not drawn)	inconclusive: 29.1 µM [falling, single point]	
O=C(CCOc1ccccc1)Nc1ccc(Br)cc1	inconclusive: 16.4 µM [activator, partial curve, poor fit]	
O=C(COc1ccccc1)Nc1ccccc1Oc1ccccc1	inconclusive: 6.51 µM [activator, partial curve]	
Cc1ccn2cc(-c3cccc([N+](=O)[O-])c3)nc2c1	inconclusive: 1.3 µM [activator, full curve]	
CCCCOc1ccc(-c2nnn(CC(=O)Nc3ncc(CC(=O)OCC)s3)n2)cc1	inconclusive: 29.1 µM [falling, single point]	
COc1cc(/C=N/NC(=O)Nc2ccccc2)ccc1OC(C)=O	inconclusive: 14.6 µM [activator, partial curve]	
CC(C)(C)C(=O)Nc1ccc(C(=O)Nc2cc(NC(=O)c3ccc(NC(=O)C(C)(C)C)cc3)cc(C(=O)O)c2)cc1	inconclusive: 25.9 µM [activator, single point]	
O=C(c1nn2c(C(F)(F)F)cc(-c3ccccc3)nc2c1Cl)N1CCOCC1		inactive: 7.86%
O=C(Nc1ccc(F)cc1)N1CCN2C(=O)c3ccccc3C12c1ccccc1 (stereo not drawn)		inactive: -12.9%
CCOc1ccc(Oc2nc(Nc3ccc(C)cc3)nc(N(C)C)n2)nn1	active: 20.6 µM	
Cc1cc(C)n(CC(=O)NC2CCCc3c2cnn3-c2ccc(C)c(C)c2)n1 (stereo not drawn)	inconclusive: 5.17 µM [activator, partial curve, poor fit]	
COc1ccccc1NC(=S)N1CCCC1	inconclusive: 3.66 µM [activator, single point]	
C=C1C(=O)OC2C1CCC(C)=C1C(=O)C3OC3(C)C12 (stereo not drawn)	active: 16.4 µM	
CC12CCC(=O)C=C1CCC1C2C(O)CC2(C)C1CCC21OCC1=O (stereo not drawn)	inconclusive: 8.2 µM [falling, partial curve]	
CN(C)c1cccc(/C=C(\C#N)c2ccccc2)c1	inconclusive: 0.58 µM [activator, full curve, poor fit]	
COc1cc(NS(=O)(=O)c2ccc(C)cc2C)cc(OC)c1OC	active: 10.3 µM	
CCC(C)NS(=O)(=O)c1ccc(NC(=O)Cc2ccc(OC)cc2)cc1 (stereo not drawn)	inconclusive: 16.4 µM [falling, single point]	

SMILES	Potency	activity change, negative = inhibition
COc1ccccc1CN(Cc1cc2cc(C)cc(C)c2[nH]c1=O)Cc1nnnn1CC1CCCO1 (stereo not drawn)	inconclusive: 29.1 µM [falling, single point]	
Cc1ccc(NS(=O)(=O)c2ccc3c(c2)NC(=O)C(C)C(=O)N3)c(Br)c1 (stereo not drawn)	inconclusive: 20.6 µM [falling, partial curve, poor fit]	
CCN(CC)C(=O)c1sc(NC(=O)c2cccc([N+](=O)[O-])c2)c(C#N)c1C	inconclusive: 25.9 µM [falling, single point]	
COc1ccc(Cl)cc1NC(=O)CN(C)C(=O)c1ccc(-n2nc(C)cc2C)cc1	inconclusive: 9.2 µM [falling, partial curve, poor fit]	
O=C(Nc1ccc(F)cc1)N(Cc1ccco1)Cc1cc2cc3c(cc2[nH]c1=O)OCO3	inconclusive: 20.6 µM [falling, single point]	
COc1ccc(C)cc1NC(=O)CN1C(=O)COc2ccc(S(=O)(=O)N3CCC(C)CC3)cc21	inconclusive: 20.6 µM [activator, single point]	
CC/C(=N/Nc1cccc(C)c1)c1cnnc(SC)n1		inactive: -9.37%
COc1ccc(OCC(=O)Nc2sc3c(c2C(=O)NCC2CCCO2)CCC3)cc1 (stereo not drawn)		inactive: -11.9%
COc1ccc2nc(SCC(=O)Nc3ccc4sc(C)nc4c3)c(C#N)cc2c1	inconclusive: 20.6 µM [falling, single point]	
CCOc1ccccc1OCCCC(=O)Nc1ccc(Cl)c(S(=O)(=O)N2CCOCC2)c1	active: 16.4 µM	
CC(C)C(=O)N1CCc2cc(-c3csc(N)n3)ccc21	inconclusive: 0.58 µM [activator, full curve, poor fit]	
Cc1c(Cl)cccc1NC(=O)C(C)n1c(=O)cc(C)c2c(C)nn(-c3ccccc3)c21 (stereo not drawn)		inactive: 24.1%
CCn1c2ccccc2c2cc(CN3CCN(S(C)(=O)=O)CC3)ccc21	inconclusive: 29.1 µM [falling, partial curve, poor fit]	
COc1ccccc1CC(=O)Nc1ccc(-c2noc(COc3ccc(Cl)c(C)c3)n2)cc1	inconclusive: 23.1 µM [falling, single point]	
COc1ccc(Cc2c3cc(OC)c(OC)cc3cc[n+]2C)cc1OC		inactive: 0.843%
CN(CC(=O)Nc1ccc(F)cc1)C(=O)CSc1nncs1	inconclusive: 20.6 µM [falling, single point]	
Cc1ccccc1NC(=O)c1ccc(Nc2c([N+](=O)[O-])cc([N+](=O)[O-])c3ccccc23)cc1	inconclusive: 29.1 µM [falling, single point]	
O=C(CNCc1cccs1)Nc1cc(S(=O)(=O)N2CCCC2)ccc1Cl	inconclusive: 16.4 µM [falling, single point]	
CN1CCN(CC(=O)N2c3ccccc3Sc3ccccc32)CC1		inactive: 7.61%
CC1(C)CC(N2CCCCC2)=CC(=[N+]2CCCCC2)C1	active: 2.31 µM	
COc1ccc(NS(=O)(=O)c2ccc(Oc3c(C#N)cccc3C#N)cc2)cc1	active: 13 µM	
CCC(=O)Nc1ccc(S(=O)(=O)N2CCCCC2)cc1OC		inactive: 4.13%
O=C1NCCN(Cc2cccc(Oc3ccccc3)c2)C1CC(=O)N1CCCCC1 (stereo not drawn)		inactive: -26.8%

SMILES	Potency	activity change, negative = inhibition
CC(C)(C)c1ccc(NC(=O)COC(=O)C2=COCCO2)cc1	inconclusive: 18.4 µM [activator, single point]	
c1ccc2c(c1)nc(NCCN1CCOCC1)c1nncn12		inactive: -3.19%
CC1(C)Cc2c(sc(NC(=O)c3ccc4ncsc4c3)c2C(N)=O)C(C)(C)N1	inconclusive: 1.64 µM [activator, full curve]	
CC(=O)c1ccc(NC(=O)c2ccc(C)c(S(=O)(=O)N3CCOCC3)c2)cc1	inconclusive: 13 µM [falling, partial curve, poor fit]	
CCN(CC)c1ccc(NC(=O)c2cc(CN3CCCC3)on2)c(C)c1	inconclusive: 16.4 µM [falling, partial curve, poor fit]	
O=C1C2CC=CCC2C(=O)N1c1ccc(Cc2ccncc2)cc1 (stereo not drawn)	active: 9.2 µM	
Cc1ccc(C(C)NC(=S)NC2CCCCC2)c(C)c1 (stereo not drawn)	inconclusive: 20.6 µM [falling, single point]	
CC(C)CC(=O)Nc1ncc([N+](=O)[O-])s1		inactive: 12.7%
CCC1CCCN1Cn1cnc2c([nH]c3ccc(OC)cc32)c1=O (stereo not drawn)		inactive: 11.8%
O=C(Nc1ccccn1)c1cccc(S(=O)(=O)N2CCCc3ccccc32)c1	inconclusive: 18.4 µM [falling, partial curve, poor fit]	
COc1ccc(C2=CC3=C(Br)C(=O)C(C)(OC(=O)c4cccs4)C(=O)C3=CO2)cc1 (stereo not drawn)		inactive: 14.5%
Cc1ccc(-c2csc3nc(SCC(=O)N(C)C)n(Cc4ccccc4)c(=O)c23)cc1	inconclusive: 25.9 µM [falling, single point]	
COc1ccc(C(=O)Nc2ccc3c(c2)C(=O)N(C)C3=O)cc1OC	inconclusive: 2.06 µM [activator, full curve, poor fit]	
Cc1nc(N2CCC(C(N)=O)CC2)c2c(-c3cccs3)csc2n1	inconclusive: 10.3 µM [falling, partial curve]	
O=C(Cn1cnnn1)Nc1ccccc1Cc1ccccc1		inactive: -2.85%
COc1ccc(CCNC(=O)c2c(C)nc3ccccn23)cc1OC	inconclusive: 13 µM [falling, partial curve, poor fit]	
O=C(/C=C/c1ccc(F)cc1)NC(=S)Nc1ccccc1C(=O)NC1CCCCC1		inactive: -7.09%
CCOC(=O)c1sc(NC(=O)CCCn2nc([N+](=O)[O-])c(Cl)c2C)c(C(=O)OCC)c1C	inconclusive: 6.51 µM [falling, full curve, poor fit]	
COc1ccc(NS(=O)(=O)c2cc(NC(=O)CC3CCCC3)ccc2N2CCOCC2)cc1	inconclusive: 18.4 µM [falling, single point]	
Fc1ccccc1-c1cc2cc3c(cc2cn1)OCO3	inconclusive: 4.61 µM [activator, partial curve]	
COc1ccccc1-c1c(-c2ccc(O)cc2O)n[nH]c1C(F)(F)F	inconclusive: 29.1 µM [falling, single point]	
Cc1c(C(=O)NCc2ccccn2)oc2ccc(S(=O)(=O)N3CCOCC3)cc12	inconclusive: 0.146 µM [falling, full curve, poor fit]	

A run of entries from the list above, for reference:
SMILES	Potency	activity change, negative = inhibition
Cc1ccc(-c2csc3nc(SCC(=O)N(C)C)n(Cc4ccccc4)c(=O)c23)cc1	inconclusive: 25.9 µM [falling, single point]	
COc1ccc(C(=O)Nc2ccc3c(c2)C(=O)N(C)C3=O)cc1OC	inconclusive: 2.06 µM [activator, full curve, poor fit]	
Cc1nc(N2CCC(C(N)=O)CC2)c2c(-c3cccs3)csc2n1	inconclusive: 10.3 µM [falling, partial curve]	
